Source: patent US20120270238A1, “Peptides That Bind the Alpha-Fetoprotein (AFP) Receptor and Uses Thereof” (priority 2009, published 2012)
At least one peptide structure holds a part that was inferred or is arguable (an end, a ring closure or a residue). No end group written: not given here.

Key:
[1] = test system: alpha-fetoprotein receptor present in MCF-7 cell extracts; assay: Competitive ELISA with biotin labeled AFP on MCF-7 cell extract; assay type: binding, human; conditions: qualitative; biotin labeled AFP 0.5 ug/ml
Protocol: To see if the enzymatic digests were still biologically active, the enzymatic digests were used in a competitive based ELISA with whole AFP molecule labeled with biotin. The ability of the enzymatic digest dilutions to compete for the alpha-fetoprotein receptor present in MCF-7 cell extracts was determined using a constant 0.5 ug/ml of biotin labeled AFP. […] This fragment was run on a gradient tricine gel, transferred to a PVDF membrane and sent for N terminal sequencing. Results gave the amino acid (AA) sequence V-N-P-G . . . corresponding to AA 493 to 496 of Human AFP as published in Uniprot Data base (FIG. 2).
A plate can be coated with an extract of a cancer cell line known to have AFP receptors (for example, MCF-7). The plate is coated at 100 ug/ml total protein concentration and the peptide to be tested and AFP biotin is mixed with an initial peptide concentration of 250 μg/ml and subsequent half dilutions made. […] (FIG. 3). This assay was repeated with subsequent peptides synthesized in order to determine the smallest amino acid chain that would compete along with other peptides not in this region of the AFP molecule as well as from a different species.

[2] = test system: AFP receptor (AFPr or RECAF); assay: Binding of radio-labeled AFP receptor to plate coated with peptide; conditions: peptide coated onto plate, initial 100 ug/ml; qualitative

**Q.** What does the source list for LQTMKQEFLIN [Fragment 4, LQTMKQEFLIN]?
**A.** competition with biotin labeled AFP for the AFP receptor [1]: found to still compete; binding to radio-labeled AFP receptor [2]: shown to bind
